Assay results published in PubChem BioAssay AID588463 (National Center for Advancing Translational Sciences (NCATS), 2011).
Hit rate of the full screen: of about 1,200 compounds, about 15 (1%) were called active. Roughly 7% stayed inconclusive and do not appear here. Calls follow the shape of the dose curve; as a rule, active = well fitted activation curve with a large enough effect; inconclusive = small, poorly fitted or top-dose-only effect; inactive = flat fitted curve, though single readings scatter. This is one part of the list.

Target: Beta-2 adrenergic receptor (Homo sapiens) (UniProt P07550)
Experiment: qHTS assay of beta-arrestin-biased ligands of beta2-adrenergic receptor: Hit Validation;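 also: plate controls were DMSO for no effect and maximal isoproterenol or metaproterenol response for full effect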
Conditions: cell-based beta-arrestin recruitment to beta2AR; at 46.1 µM (top of the series)
From the text: The concept of biased agonism is an emerging concept of molecular pharmacology which proposes that seven transmembrane receptors (7TMRs) or G protein-coupled receptors (GPCRs), exist in multiple signaling conformations and complexes and that ligands (either agonists or antagonists) can induce signaling biased responses for distinct signal transduction cascades.
Furthermore, accumulating evidence over the last decade has drawn attention to a novel function of beta-arrestins as signal transducers that scaffold various signaling molecules upon activation of 7TMRs. […] This beta-arrestin-biased signaling presumably leads to distinct physiological outcomes from those by G protein activation.
Additionally, the active receptor conformations which […] on this beta-arrestin signaling are likely different from those activating G protein signaling
The goal of this screening project will be to discover and optimize novel beta-arrestin-biased ligands for beta2-AR signaling. A luminescent cell-based assay for beta2-AR-mediated agonism, known as the Tango assay, has been validated in which ligand binding of a recombinant beta2-AR and subsequent recruitment of a recombinant beta-arrestin lead to the release of the transcriptional activator tTA, which upregulates transcription of a tTA-responsive luciferase gene.
NIH Molecular Libraries Probe Production Network [MLPCN]
NIH Chemical Genomics Center [NCGC]
PI: Bryan Roth (UNC) and Bob Lefkowitz (Duke)
NCGC Assay Protocol Summary:
Tango cells were dispensed into white, solid, tissue-culture-treated 1536-well plates at 1500 cells/well in DMEM, containing 1% fetal bovine serum (FBS). Then, 23 nL of compounds or DMSO were delivered to each well using a pin tool. Plates were incubated at 37 degrees C, 5% CO2 for 18 hr. Then 2.5 uL luminescent substrate mix (in-house prepared: 150 mM Tris-Cl, pH 7.6, 3 mM MgCl2, 1% Triton X-100, 5 mM DTT, 0.5 mM CoA, 0.15 mM ATP, 0.44 mM D-luciferin, final concentrations) was added to each well. Plates were then incubated for 15 minutes at room temperature, and subsequently measured on a ViewLux plate reader for luminescent signal using a clear filter with a 10 second exposure and 2x binning. The %Activity was determined from the corrected luminescence values.
Concentration-response curves were fitted to the signals arising from the resulting luminescence. The concentration-effect curves were then classified based on curve quality (r2), response magnitude and degree of measured activity, and compounds were subsequently categorized based on their curve class.
Keywords: biased agonism, beta2-AR, beta-arrestin, GPCR, 7TMR, Tango, luminescence, MLSMR, MLPCN, NIH Roadmap, qHTS, NCGC

SMILES | activation
Clc1ccc2c(c1)C(c1ccccc1Cl)=NCc1nnc(N3CCN(CCOc4ccccc4)CC3)n1-2 | inactive: -1.81%
COC(=O)C1=C(c2ccc(OCc3ccccc3)cc2)C[C@@H]2CC[C@H]1N2C(=O)NCc1cccc(C(F)(F)F)c1 | inactive: 8.26%
O=C1NC(=O)N(Cc2ccc(F)cc2)C(=O)/C1=C\C=C\c1ccco1 | inactive: -3.42%
COc1cccc(C(=O)C2CCCN(Cc3cccc(C)n3)C2)c1 (stereo not drawn) | inactive: -1.28%
S=C=Nc1cccc(C2(N3CCCCC3)CCCCC2)c1 | inactive: 4.58%
c1cncc(C2Nc3cccc4cccc(c34)N2)c1 | inactive: -3.29%
COC(=O)C1=C(c2ccc(-c3ccccc3)c(F)c2)C[C@@H]2CC[C@H]1N2C(=O)NCCOc1ccc(OC)cc1 | inactive: 6.35%
COC(=O)C1=C(c2ccc(-c3ccccc3)c(F)c2)C[C@@H]2CC[C@H]1N2C(=O)NCc1ccco1 | inactive: 6.91%
CC(=O)c1ccc2c(c1)C1C(Cl)C(Sc3ccccc3[N+](=O)[O-])CC1C(c1ccccc1)N2 (stereo not drawn) | inactive: -3.37%
COC(=O)OCC12CCC(O1)C1(C)C(=O)OCC21 (stereo not drawn) | inactive: -3.25%
COC(=O)C1=C(c2ccc(OC)c(OC)c2)C[C@@H]2CC[C@H]1N2C(=O)NCc1cccc2ccccc12 | inactive: 8.39%
Cc1ccc(N2C(=O)NC(=O)/C(=C/C=C/c3ccco3)C2=O)cc1 | inactive: -2.96%
CCCCn1c(=O)c(C(=O)NCc2ccncc2)c(O)c2ccccc21 | inactive: 0.0024%
OC12ONC(c3ccccn3)C1N1CCC2CC1 (stereo not drawn) | inactive: -3.98%
C[C@]12CC[C@H](O)CC1=CC(=O)C1C2CC[C@]2(C)C(=O)[C@H](O)CC12 (stereo partly drawn) | inactive: -2.33%
O=C1NC(=O)N(Cc2ccccc2)C(=O)/C1=C/C=C/c1ccco1 | inactive: -3.42%
COC(=O)C1=C(c2ccc(F)cc2F)C[C@@H]2CC[C@H]1N2C(=O)NCCNC(C)=O | inactive: -3.3%
Cc1cc(C)cc(N2C(=O)NC(=O)/C(=C\C=C\c3ccco3)C2=O)c1 | inactive: -5.11%
O=c1c2ccccc2nc(/C=C/c2ccc(O)c(O)c2)n1-c1ccccc1 | inactive: 4.46%
N#Cc1c(Cl)nc(Cl)c2c1CCN(Cc1ccccc1)C2 | inactive: -2.03%
CN1CCN(C(=O)COc2ccc(S(=O)(=O)Nc3ccc(F)cc3)cc2)CC1 | inactive: -1.99%
COc1cccc(OCc2cc(C(=O)N3C[C@H]4C[C@@H](C3)c3cccc(=O)n3C4)no2)c1 | inactive: -4.83%
O=C(NCCCN1CCOCC1)C(Cl)(Cl)Cl | inactive: -1.68%

Reprinted at random: 2 compounds from above, in no set order.
SMILES | activation
CC(=O)c1ccc2c(c1)C1C(Cl)C(Sc3ccccc3[N+](=O)[O-])CC1C(c1ccccc1)N2 (stereo not drawn) | inactive: -3.37%
O=C1NC(=O)N(Cc2ccccc2)C(=O)/C1=C/C=C/c1ccco1 | inactive: -3.42%
